The list shows a part of the results. Most entries show no effect beyond the scatter of the controls.

Protein sequences, listed by entry. Tags and fused reporters are not part of them. Lines headed by an entry give the natural chain unless they say otherwise; changes in a name come on top.
UniProt Q9NQZ2: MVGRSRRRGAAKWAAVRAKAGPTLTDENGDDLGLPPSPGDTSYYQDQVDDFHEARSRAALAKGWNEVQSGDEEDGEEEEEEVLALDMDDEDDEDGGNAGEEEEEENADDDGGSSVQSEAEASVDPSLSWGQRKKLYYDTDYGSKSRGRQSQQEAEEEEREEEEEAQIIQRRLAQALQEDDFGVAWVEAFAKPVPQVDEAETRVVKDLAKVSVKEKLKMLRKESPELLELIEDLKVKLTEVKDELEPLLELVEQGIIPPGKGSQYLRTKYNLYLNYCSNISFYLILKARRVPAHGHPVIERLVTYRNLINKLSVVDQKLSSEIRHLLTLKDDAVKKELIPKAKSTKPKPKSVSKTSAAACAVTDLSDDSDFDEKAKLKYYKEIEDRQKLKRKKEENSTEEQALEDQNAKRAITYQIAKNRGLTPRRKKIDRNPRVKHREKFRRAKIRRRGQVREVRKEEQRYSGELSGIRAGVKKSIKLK
UniProt Q9NR19, whole entry: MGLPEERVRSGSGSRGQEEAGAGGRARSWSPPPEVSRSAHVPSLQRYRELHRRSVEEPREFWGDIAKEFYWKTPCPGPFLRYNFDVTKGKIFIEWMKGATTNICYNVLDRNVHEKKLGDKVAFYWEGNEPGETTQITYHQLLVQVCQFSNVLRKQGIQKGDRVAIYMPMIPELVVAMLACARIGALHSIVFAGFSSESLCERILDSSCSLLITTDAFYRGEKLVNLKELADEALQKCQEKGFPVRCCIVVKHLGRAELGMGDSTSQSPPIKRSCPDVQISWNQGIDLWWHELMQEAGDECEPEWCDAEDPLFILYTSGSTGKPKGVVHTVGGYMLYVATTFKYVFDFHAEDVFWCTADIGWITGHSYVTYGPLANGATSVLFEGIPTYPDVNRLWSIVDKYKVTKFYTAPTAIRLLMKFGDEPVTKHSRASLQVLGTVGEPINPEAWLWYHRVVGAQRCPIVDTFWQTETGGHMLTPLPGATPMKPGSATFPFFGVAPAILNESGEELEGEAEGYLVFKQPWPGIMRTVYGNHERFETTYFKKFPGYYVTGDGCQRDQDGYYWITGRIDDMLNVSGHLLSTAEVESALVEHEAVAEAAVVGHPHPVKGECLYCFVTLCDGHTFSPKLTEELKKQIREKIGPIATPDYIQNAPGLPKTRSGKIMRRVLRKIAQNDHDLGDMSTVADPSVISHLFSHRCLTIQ
UniProt Q9NPE2: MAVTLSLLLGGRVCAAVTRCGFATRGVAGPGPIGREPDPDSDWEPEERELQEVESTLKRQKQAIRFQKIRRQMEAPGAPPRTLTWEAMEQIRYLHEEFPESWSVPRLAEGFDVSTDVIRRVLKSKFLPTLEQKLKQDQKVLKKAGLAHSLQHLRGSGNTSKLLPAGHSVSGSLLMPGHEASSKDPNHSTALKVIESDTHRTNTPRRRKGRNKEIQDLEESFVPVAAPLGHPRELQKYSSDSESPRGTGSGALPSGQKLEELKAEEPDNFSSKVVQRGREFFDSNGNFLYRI
UniProt Q9NUL3: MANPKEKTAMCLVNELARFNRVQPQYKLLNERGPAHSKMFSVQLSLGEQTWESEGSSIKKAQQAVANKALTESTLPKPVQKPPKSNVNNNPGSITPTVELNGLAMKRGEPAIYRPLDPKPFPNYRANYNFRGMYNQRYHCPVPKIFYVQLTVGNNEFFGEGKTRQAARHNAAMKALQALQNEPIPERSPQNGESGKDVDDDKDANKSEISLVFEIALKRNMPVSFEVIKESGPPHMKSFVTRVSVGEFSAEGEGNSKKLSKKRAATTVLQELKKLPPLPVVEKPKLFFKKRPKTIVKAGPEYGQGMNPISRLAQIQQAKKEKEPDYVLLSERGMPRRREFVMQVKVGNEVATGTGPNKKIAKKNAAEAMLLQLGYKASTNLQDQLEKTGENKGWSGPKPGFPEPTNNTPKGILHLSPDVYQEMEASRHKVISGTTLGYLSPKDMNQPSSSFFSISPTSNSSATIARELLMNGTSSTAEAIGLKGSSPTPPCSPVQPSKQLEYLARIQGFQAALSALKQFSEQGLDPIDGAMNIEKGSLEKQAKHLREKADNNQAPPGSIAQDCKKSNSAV
UniProt Q9NRZ9: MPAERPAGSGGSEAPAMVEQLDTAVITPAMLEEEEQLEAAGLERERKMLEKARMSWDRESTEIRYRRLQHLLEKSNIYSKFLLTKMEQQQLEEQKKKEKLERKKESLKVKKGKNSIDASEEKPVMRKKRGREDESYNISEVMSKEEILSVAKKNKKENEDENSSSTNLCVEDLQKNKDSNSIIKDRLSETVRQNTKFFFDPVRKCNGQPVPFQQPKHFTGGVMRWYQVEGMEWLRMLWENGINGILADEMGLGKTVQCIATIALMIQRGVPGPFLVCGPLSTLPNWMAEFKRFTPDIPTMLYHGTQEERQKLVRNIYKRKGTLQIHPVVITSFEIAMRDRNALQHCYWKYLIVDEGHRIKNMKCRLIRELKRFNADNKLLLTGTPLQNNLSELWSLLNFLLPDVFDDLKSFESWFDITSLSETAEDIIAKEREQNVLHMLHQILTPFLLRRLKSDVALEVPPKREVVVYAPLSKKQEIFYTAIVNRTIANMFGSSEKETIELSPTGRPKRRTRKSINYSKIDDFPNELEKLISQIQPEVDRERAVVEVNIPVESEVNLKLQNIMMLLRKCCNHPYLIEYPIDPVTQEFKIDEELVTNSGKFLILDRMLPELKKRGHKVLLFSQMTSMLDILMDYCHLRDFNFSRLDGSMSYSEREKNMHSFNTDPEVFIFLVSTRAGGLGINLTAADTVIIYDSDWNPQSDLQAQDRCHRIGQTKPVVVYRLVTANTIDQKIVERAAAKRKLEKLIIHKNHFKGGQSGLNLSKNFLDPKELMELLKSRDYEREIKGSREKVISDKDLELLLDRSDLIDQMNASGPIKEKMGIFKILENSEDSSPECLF
UniProt Q9NQV6: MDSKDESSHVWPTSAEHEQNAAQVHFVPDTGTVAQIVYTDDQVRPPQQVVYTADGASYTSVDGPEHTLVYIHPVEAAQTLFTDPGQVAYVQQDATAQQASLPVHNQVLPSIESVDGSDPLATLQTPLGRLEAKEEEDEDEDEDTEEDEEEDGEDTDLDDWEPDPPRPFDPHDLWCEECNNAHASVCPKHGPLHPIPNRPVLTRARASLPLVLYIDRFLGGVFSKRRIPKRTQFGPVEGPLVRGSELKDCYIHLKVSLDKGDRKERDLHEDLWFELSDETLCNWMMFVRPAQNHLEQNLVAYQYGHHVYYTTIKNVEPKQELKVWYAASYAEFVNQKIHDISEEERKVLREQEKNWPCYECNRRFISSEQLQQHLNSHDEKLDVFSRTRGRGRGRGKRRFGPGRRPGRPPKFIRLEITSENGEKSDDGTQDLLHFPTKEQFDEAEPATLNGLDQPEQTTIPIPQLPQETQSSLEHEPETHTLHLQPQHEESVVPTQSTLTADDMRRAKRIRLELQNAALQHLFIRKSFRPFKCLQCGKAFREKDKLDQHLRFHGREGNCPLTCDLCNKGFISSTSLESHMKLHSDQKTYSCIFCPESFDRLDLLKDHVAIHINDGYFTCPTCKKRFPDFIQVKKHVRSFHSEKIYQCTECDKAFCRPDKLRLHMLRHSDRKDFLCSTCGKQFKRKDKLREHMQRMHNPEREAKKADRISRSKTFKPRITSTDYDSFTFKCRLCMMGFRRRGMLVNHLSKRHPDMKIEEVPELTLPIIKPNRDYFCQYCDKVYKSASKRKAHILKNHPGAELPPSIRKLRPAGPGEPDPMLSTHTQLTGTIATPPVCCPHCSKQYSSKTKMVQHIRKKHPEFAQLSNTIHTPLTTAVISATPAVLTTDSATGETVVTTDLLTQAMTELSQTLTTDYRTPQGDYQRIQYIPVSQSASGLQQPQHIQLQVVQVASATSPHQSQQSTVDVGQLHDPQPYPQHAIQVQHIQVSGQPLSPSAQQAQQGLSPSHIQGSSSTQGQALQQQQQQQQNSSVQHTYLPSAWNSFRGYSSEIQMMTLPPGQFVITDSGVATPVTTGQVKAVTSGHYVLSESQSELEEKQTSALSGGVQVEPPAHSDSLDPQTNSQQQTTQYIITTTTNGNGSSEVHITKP
UniProt Q9NQG5: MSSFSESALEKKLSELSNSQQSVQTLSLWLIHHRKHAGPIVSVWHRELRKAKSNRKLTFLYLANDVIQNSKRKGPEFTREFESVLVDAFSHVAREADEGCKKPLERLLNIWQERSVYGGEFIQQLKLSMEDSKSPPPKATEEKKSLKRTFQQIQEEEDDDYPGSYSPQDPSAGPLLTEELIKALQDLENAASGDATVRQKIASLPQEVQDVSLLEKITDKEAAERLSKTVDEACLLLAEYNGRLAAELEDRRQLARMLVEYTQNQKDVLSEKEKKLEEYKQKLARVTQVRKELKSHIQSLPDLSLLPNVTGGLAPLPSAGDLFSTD
UniProt Q9NQX3: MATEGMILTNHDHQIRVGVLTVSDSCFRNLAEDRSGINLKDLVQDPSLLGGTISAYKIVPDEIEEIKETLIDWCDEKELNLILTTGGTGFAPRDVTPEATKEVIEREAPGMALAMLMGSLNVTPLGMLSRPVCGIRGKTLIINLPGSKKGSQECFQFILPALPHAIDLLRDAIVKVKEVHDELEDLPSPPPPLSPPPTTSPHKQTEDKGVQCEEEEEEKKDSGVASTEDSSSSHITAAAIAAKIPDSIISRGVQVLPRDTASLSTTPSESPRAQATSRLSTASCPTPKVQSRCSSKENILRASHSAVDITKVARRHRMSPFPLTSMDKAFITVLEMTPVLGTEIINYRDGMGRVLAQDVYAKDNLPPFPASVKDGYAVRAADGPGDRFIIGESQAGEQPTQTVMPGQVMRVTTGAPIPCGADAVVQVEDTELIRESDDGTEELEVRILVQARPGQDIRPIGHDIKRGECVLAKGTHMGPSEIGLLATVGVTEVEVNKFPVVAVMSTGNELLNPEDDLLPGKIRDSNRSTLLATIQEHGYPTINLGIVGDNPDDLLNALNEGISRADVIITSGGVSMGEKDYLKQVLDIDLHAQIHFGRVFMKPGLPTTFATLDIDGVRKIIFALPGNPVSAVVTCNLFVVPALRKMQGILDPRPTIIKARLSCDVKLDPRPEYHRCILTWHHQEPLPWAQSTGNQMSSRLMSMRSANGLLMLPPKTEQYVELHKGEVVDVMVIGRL
UniProt Q9NW64: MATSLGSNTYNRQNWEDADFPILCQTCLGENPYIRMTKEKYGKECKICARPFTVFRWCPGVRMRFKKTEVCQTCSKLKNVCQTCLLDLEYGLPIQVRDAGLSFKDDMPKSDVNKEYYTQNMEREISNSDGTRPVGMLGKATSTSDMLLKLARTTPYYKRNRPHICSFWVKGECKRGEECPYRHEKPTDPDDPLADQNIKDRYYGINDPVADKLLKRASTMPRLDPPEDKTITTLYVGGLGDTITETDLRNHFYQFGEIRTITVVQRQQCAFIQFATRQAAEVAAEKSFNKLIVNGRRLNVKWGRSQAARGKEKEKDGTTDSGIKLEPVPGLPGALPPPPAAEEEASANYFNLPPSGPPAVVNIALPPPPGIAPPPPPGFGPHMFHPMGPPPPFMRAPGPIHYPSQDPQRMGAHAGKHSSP
UniProt Q9NRA0: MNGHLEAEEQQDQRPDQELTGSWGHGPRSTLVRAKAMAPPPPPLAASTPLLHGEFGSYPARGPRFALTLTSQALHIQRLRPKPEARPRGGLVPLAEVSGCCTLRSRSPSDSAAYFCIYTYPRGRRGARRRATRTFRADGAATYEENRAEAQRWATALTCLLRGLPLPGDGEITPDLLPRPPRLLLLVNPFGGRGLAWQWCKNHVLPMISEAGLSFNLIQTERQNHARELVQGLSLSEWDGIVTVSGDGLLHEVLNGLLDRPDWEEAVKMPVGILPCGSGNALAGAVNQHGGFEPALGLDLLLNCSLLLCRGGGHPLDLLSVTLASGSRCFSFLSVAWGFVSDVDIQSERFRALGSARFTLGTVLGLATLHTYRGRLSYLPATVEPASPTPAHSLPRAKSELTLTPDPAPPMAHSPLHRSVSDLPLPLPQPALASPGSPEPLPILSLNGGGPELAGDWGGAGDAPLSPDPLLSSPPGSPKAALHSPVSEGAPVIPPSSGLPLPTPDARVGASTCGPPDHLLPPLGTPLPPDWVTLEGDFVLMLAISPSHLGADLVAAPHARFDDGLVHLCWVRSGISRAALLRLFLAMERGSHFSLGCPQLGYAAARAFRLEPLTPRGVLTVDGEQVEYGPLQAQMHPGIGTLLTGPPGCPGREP
UniProt Q9NRG1: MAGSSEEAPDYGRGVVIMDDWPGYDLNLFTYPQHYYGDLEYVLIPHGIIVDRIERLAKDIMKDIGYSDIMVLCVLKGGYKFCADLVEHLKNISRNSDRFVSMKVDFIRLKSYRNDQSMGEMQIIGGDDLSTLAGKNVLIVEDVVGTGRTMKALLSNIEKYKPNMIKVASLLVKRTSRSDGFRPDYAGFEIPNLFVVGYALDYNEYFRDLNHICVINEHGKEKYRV
UniProt Q9HD42: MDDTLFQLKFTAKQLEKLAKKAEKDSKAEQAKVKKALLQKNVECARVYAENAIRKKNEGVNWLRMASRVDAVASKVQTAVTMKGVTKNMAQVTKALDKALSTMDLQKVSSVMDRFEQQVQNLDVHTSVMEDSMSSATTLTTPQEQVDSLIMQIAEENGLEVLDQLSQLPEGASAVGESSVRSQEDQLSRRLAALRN

Compound in this assay: Cc1nc(Nc2ncc(C(=O)Nc3c(C)cccc3Cl)s2)cc(N2CCN(CCO)CC2)n1 [dasatinib]
Briefly: log2 fold change of tryptic peptide abundance, ligand vs vehicle (limited proteolysis) (log2 ratio); higher = more trypsin-susceptible (destabilized). Particulars: ligand concentration: 5 uM; sample: K562 cleared lysate.
As to “DUSP22 (peptide sequence: SCANPNVGFQR, peptide start residue: 123) (UniProt Q9NRW4)”, the log2 fold change was found to be 0.158.
For the target “UTP3 (peptide sequence: HLLTLKDDAVKK, peptide start residue: 324) (UniProt Q9NQZ2)”, the log2 fold change is 0.336.
Take “THG1L (peptide sequence: VVVYPSNQTLK, peptide start residue: 160) (UniProt Q9NWX6)”: the log2 fold change came to 0.398.
“ACSS2 (peptide sequence: TPCPGPFLR, peptide start residue: 73) (UniProt Q9NR19)”: the log2 fold change is -0.225.
In the case of “IFT46 (peptide sequence: TSQLTPQR, peptide start residue: 20) (UniProt Q9NQC8)” it was 0.219; in that of “NGRN (peptide sequence: GTGSGALPSGQKLEELK, peptide start residue: 246) (UniProt Q9NPE2)”, 0.72; in that of “STAU2 (peptide sequence: HKVISGTTLGYLSPK, peptide start residue: 428) (UniProt Q9NUL3)”, -0.321.
With “HELLS (peptide sequence: NALQHCYWK, peptide start residue: 341) (UniProt Q9NRZ9)”, the log2 fold change was -0.494.
For the target “PRDM10 (peptide sequence: LCMMGFR, peptide start residue: 731) (UniProt Q9NQV6)”, the log2 fold change is 0.164.
Turning to “RNF146 (peptide sequence: KGVAGLRLDCDANTVNLAR, peptide start residue: 176) (UniProt Q9NTX7)”, the log2 fold change was -0.652.
The value for “CENPM (peptide sequence: VCFLATGAGR, peptide start residue: 97) (UniProt Q9NSP4)” was -0.261.
For “RPRD1B (peptide sequence: LSELSNSQQSVQTLSLWLIHHR, peptide start residue: 13) (UniProt Q9NQG5)”, the log2 fold change amounted to 0.522.
The value for “BIRC6 (peptide sequence: GTPSGTQSSR, peptide start residue: 4716) (UniProt Q9NR09)” was 0.157.
As to “UniProt Q9NWL6 (peptide sequence: SDVNYQCLFSAHVLHLR, peptide start residue: 41)”, the log2 fold change amounted to 0.314.
In the case of “GPHN (peptide sequence: LSTASCPTPK, peptide start residue: 279) (UniProt Q9NQX3)” it was 0.0675; in that of “GOPC (peptide sequence: RPMQAPPGHDQDSLKK, peptide start residue: 264) (UniProt Q9HD26)”, 0.179.
Take “UniProt Q9NW64 (peptide sequence: DRYYGINDPVADK, peptide start residue: 200)”: the log2 fold change is -0.17.
With “SPHK2 (peptide sequence: AKSELTLTPDPAPPMAHSPLHR, peptide start residue: 397) (UniProt Q9NRA0)”, the log2 fold change is -0.317.
For “HMG20A (peptide sequence: KSNMEFEER, peptide start residue: 241) (UniProt Q9NP66)”, the log2 fold change is -0.103.
Consider “UniProt Q9NQG6 (peptide sequence: KGQVDLKK, peptide start residue: 121)”, for which the log2 fold change is -0.0916.
Take “PRTFDC1 (peptide sequence: DLNHICVINEHGKEK, peptide start residue: 208) (UniProt Q9NRG1)”: the log2 fold change was -0.384.
“NECAP2 (peptide sequence: QQCEFAK, peptide start residue: 131) (UniProt Q9NVZ3)”: the log2 fold change came to 0.137.
In the case of “ZCCHC3 (peptide sequence: THMSGSCTQDR, peptide start residue: 342) (UniProt Q9NUD5)”, the log2 fold change came to 0.439.
Regarding “MRPL17 (peptide sequence: QSQEASNHSSHTAQTPGI, peptide start residue: 158) (UniProt Q9NRX2)”, the log2 fold change amounted to 0.0466.
“CHMP1A (peptide sequence: VYAENAIR, peptide start residue: 47) (UniProt Q9HD42)”: the log2 fold change turned out to be 0.0605.
Turning to “STRN4 (peptide sequence: RCTVDGSPHELESR, peptide start residue: 336) (UniProt Q9NRL3)”, the log2 fold change was 0.102.
In the case of “C1orf112 (peptide sequence: GIFWEPFANVTVEEAKR, peptide start residue: 768) (UniProt Q9NSG2)” it was -0.117; in that of “BRMS1 (peptide sequence: QFSELKEK, peptide start residue: 70) (UniProt Q9HCU9)”, 0.209.

(Values after the supplement of paper PMC12819154, “High-throughput peptide-centric local stability assay extends protein–ligand identification to membrane proteins, tissues and bacteria” (Nature Structural & Molecular Biology, 2025).)
